# Melanoma cell counts after drug treatment

Data from the primary screen of doi:10.1371/journal.pone.0140310, rounded.

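Human melanoma cell lines in 1,536-well plates were treated with a pair of drugs for 72 h, then fixed, stained and imaged. Values are the number of DAPI-stained nuclei as a percentage of the DMSO control: 100 is no effect, lower means fewer cells. Every drug was used at one fixed concentration, the higher of two screened. The file gives one value for each pair and line, without errors, so small differences may be noise.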
Only some of the drugs and lines screened are listed, without regard to their results.
A dash means that no value is listed here.

Drug key:
FK866, 0.05 µM: O=C(/C=C/c1cccnc1)NCCCCC1CCN(C(=O)c2ccccc2)CC1
L-779450, 1 µM: Oc1cc(-c2nc(-c3ccccc3)[nH]c2-c2ccncc2)ccc1Cl
fingolimod, 10 µM: CCCCCCCCc1ccc(CCC(N)(CO)CO)cc1
KU-55933, 5 µM: O=c1cc(-c2cccc3c2Sc2ccccc2S3)oc(N2CCOCC2)c1
CX-4945, 2 µM: O=C(O)c1ccc2c(c1)nc(Nc1cccc(Cl)c1)c1ccncc12
docetaxel, 0.0005 µM: CC(=O)O[C@@]12CO[C@@H]1C[C@H](O)[C@@]1(C)C(=O)[C@H](O)C3=C(C)[C@@H](OC(=O)[C@H](O)[C@@H](NC(=O)OC(C)(C)C)c4ccccc4)C[C@@](O)([C@@H](OC(=O)c4ccccc4)[C@H]21)C3(C)C
dorsomorphin, 2 µM: c1cc(-c2cnn3cc(-c4ccc(OCCN5CCCCC5)cc4)cnc23)ccn1
embelin, 6 µM: CCCCCCCCCCCC1=C(O)C(=O)C=C(O)C1=O
RKI-983, 2 µM: C[C@@H](N)c1ccc(C(=O)Nc2ccnc3[nH]ccc23)cc1
GW2580, 5 µM: COc1ccc(COc2ccc(Cc3cnc(N)nc3N)cc2OC)cc1

| Drugs | A2058 | COLO 829 | C32 | IPC-298 | A375 | WM451Lu |
|---|---|---|---|---|---|---|
| embelin + GW2580 | 79.7 | 138 | 109 | 96.8 | 92.9 | - |
| KU-55933 + FK866 | - | 56.8 | 106 | - | - | 101 |
| RKI-983 + L-779450 | 70.8 | 66.7 | 64.1 | - | 92.9 | 60.0 |
| RKI-983 + CX-4945 | - | - | - | - | - | 66.8 |
| CX-4945 + GW2580 | - | - | - | - | - | 76.6 |
| dorsomorphin + KU-55933 | 80.4 | 102 | 70.0 | 83.9 | 81.2 | - |
| CX-4945 + dorsomorphin | - | 52.7 | 54.0 | - | - | 81.1 |
| CX-4945 + FK866 | - | 56.0 | 103 | - | - | 66.5 |
| docetaxel + RKI-983 | 7.8 | 34.9 | 52.0 | - | 69.0 | 26.4 |
| dorsomorphin + L-779450 | 73.2 | 88.3 | 70.2 | 84.8 | 76.0 | - |
| RKI-983 + FK866 | - | 52.7 | 76.9 | - | - | 68.0 |
| RKI-983 + fingolimod | 5.6 | 41.9 | 3.0 | - | 32.0 | 3.1 |
| KU-55933 + fingolimod | - | - | 7.9 | - | - | - |
| fingolimod + CX-4945 | - | - | - | - | - | 8.9 |
| docetaxel + L-779450 | - | - | - | - | - | 28.5 |
| FK866 + embelin | - | 66.7 | 86.5 | - | - | 114 |
| KU-55933 + embelin | 104 | 92.8 | 112 | 64.2 | 132 | - |
| fingolimod + docetaxel | - | - | - | - | - | 9.2 |
| GW2580 + dorsomorphin | 83.8 | 89.9 | 68.9 | 86.0 | 68.7 | - |
| embelin + L-779450 | 96.1 | 74.9 | 89.8 | 75.4 | 104 | - |
| GW2580 + KU-55933 | 94.3 | 99.1 | 102 | 91.7 | 92.4 | - |

The first 2 entries again:

| Drugs | A2058 | COLO 829 | C32 | IPC-298 | A375 | WM451Lu |
|---|---|---|---|---|---|---|
| embelin + GW2580 | 79.7 | 138 | 109 | 96.8 | 92.9 | - |
| KU-55933 + FK866 | - | 56.8 | 106 | - | - | 101 |